For 1 substance, binding results are on record in publication PMC4763541, “Pitchfork and Gprasp2 Target Smoothened to the Primary Cilium for Hedgehog Pathway Activation” (PLoS ONE, 2016).

No constants are given. Whether binding was seen depends on the method and setting. In cells and extracts the contact can be indirect. Binding can be weak; no strength is given.

The target in the test is T1, Strep-Tactin sepharose-coupled mPifo (immobilized mouse Pitchfork) (mouse) (UniProt Q9D9W1).
T1 sequence: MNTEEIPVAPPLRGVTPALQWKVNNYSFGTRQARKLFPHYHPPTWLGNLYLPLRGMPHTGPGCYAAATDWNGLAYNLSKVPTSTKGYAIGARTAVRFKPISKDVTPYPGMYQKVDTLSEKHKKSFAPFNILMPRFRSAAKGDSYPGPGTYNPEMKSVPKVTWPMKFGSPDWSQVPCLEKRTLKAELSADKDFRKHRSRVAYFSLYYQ
Description: pull-down; Strep-Tactin sepharose-coupled mPifo, time-resolved affinity precipitation from lysates of mouse primary limb bud cultures treated with Shh for 0 to 48 h; also after control siRNA and after Gprasp2 siRNA with HA-hGPRASP2 rescue; immunoblot; only the target purified. A general note: In western blotting, separated proteins are transferred to a membrane and probed.

With “endogenous Dynein IC, retrograde motor protein subunit (mouse (endogenous in PLCs))”, the binding result was “binds”.
